Experimental data taken from publication doi:10.1101/2024.04.28.591512.
No constants are given. Whether binding was seen depends on the method and setting. Some results given as binding are weak or reduced against the parent protein; the word gives no strength.

The chains behind the UniProt entries cited, without tags or fusion partners. Where a name states a change or a piece, a line headed by the entry shows the natural chain unless it says otherwise. Residues count along the entry.
UniProt Q15788, 570-780: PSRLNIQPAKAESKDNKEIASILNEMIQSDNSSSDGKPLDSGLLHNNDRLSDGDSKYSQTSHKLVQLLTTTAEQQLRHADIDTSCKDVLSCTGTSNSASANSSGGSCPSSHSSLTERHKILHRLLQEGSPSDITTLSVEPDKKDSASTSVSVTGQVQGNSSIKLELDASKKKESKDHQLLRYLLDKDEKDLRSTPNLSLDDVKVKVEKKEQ

Biological target: Gal4-SRC1 (aa 570-780) (UniProt Q15788)
Assay: two-hybrid

binding | Binder
binds | LXRα-VP16, wildtype (receptor, UniProt Q13133-1 1-447) MSLWLGAPVPDIPPDSAVELWKPGAQDASSQAQGGSSCILREEARMPHSAGGTAGVGLEAAEPTALLTRAEPPSEPTEIRPQKRKKGPAPKMLGNELCSVCGDKASGFHYNVLSCEGCKGFFRRSVIKGAHYICHSGGHCPMDTYMRRKCQECRLRKCRQAGMREECVLSEEQIRLKKLKRQEEEQAHATSLPPRASSPPQILPQLSPEQLGMIEKLVAAQQQCNRRSFSDRLRVTPWPMAPDPHSREARQQRFAHFTELAIVSVQEIVDFAKQLPGFLQLSREDQIALLKTSAIEVMLLETSRRYNPGSESITFLKDFSYNREDFAKAGLQVEFINPIFEFSRAMNELQLNDAEFALLIAISIFSADRPNVQDQLQVERLQHTYVEALHAYVSIHHPHDRLMFPRMLMKLVSLRTLSSVHSEQVFALRLQDKKLPPLLSEIWDVHE
binds | LXRα-VP16 M346V (receptor, UniProt Q13133-1 1-447) MSLWLGAPVPDIPPDSAVELWKPGAQDASSQAQGGSSCILREEARMPHSAGGTAGVGLEAAEPTALLTRAEPPSEPTEIRPQKRKKGPAPKMLGNELCSVCGDKASGFHYNVLSCEGCKGFFRRSVIKGAHYICHSGGHCPMDTYMRRKCQECRLRKCRQAGMREECVLSEEQIRLKKLKRQEEEQAHATSLPPRASSPPQILPQLSPEQLGMIEKLVAAQQQCNRRSFSDRLRVTPWPMAPDPHSREARQQRFAHFTELAIVSVQEIVDFAKQLPGFLQLSREDQIALLKTSAIEVMLLETSRRYNPGSESITFLKDFSYNREDFAKAGLQVEFINPIFEFSRAVNELQLNDAEFALLIAISIFSADRPNVQDQLQVERLQHTYVEALHAYVSIHHPHDRLMFPRMLMKLVSLRTLSSVHSEQVFALRLQDKKLPPLLSEIWDVHE
